Data reported in patent US6472198B1, “Slow release substrates for driving microbial transformations of environmental contaminants” (The State of Oregon Acting by and through the State Board …, priority 1998, dated 2002).
Some of these results come from one statement about several compounds together.

Tested on: microbial culture grown on TBOS
Test: Aerobic cometabolism of cis-DCE by microorganisms grown on TBOS
Assay type: cell-based
Conditions: TBOS 20 mg/L and cis-DCE 2 mg/L aqueous, duplicate
Method: Gas phase TCE and cis-DCE concentrations were measured by injecting 10-100 μL of a gaseous sample into a HP-5890 gas chromatograph connected to a photoionization detector (PID) followed by a flame ionization detector (FID). Chromatographic separation was carried-out with a 30-m megabore GSQ-PLOT column from J&W Scientific (Folsom, Calif.). The GC operating conditions were as follows: injector temperature, 250° C.; detector temperature: 280° C.; the column was initially maintained at 40° C. for 2 minutes and then heated to 220° C. at 15° C./minute.
The microcosms for aerobic cometabolism studies were carried out as described in Example 1 under the heading “Aerobic Biodegradation.” The bacterial culture used was that described in Example 1 under the heading “Enrichment of Aerobic Culture.” cis-DCE and TCE stocks in water were prepared by saturating distilled water with cis-DCE and TCE at 30° C. TCE and cis-DCE dissolved in the water to their solubility limit. […]
The microbial culture grown on TBOS was tested for its ability to cometabolize cis-DCE. […] Four microcosms and two controls were evaluated: a poisoned control with TBOS and cis-DCE; an autoclaved control with TBOS and cis-DCE; two biologically active microcosms with TBOS and cis-DCE; a resting cell microcosm with only cis-DCE; and an acetylene block microcosm with TBOS and cis-DCE.

Structure (SMILES): CCCCO[Si](OCCCC)(OCCCC)OCCCC [No. 2, Tetrabutoxysilane]
- time to transformation in biologically active microcosms: ≤ 15 hours
